Drawing on PubChem BioAssay AID248 (DTP/NCI, 2004), this text covers survivor count and T/C for 26 compounds.

For the experiment, the system named is L1210 leukemia ip in BDF1 mice, survival T/C. In words: NCI In Vivo Anticancer Drug Screen. Data for tumor model L1210 Leukemia (intraperitoneal) in B6D2F1 (BDF1) mice. As to conditions: T/C endpoint: mean survival time, higher T/C = longer survival.
[1] abbreviates: dose: 100.0 mg/kg/injection, schedule: Q04DX003 (ip), vehicle: saline with Tween-80.
Where [2] appears, read: dose: 200.0 mg/kg/injection, schedule: Q04DX003 (ip), vehicle: saline with Tween-80.
Where [3] appears, read: dose: 400.0 mg/kg/injection, schedule: Q04DX003 (ip), vehicle: saline with Tween-80.
The mark [4] stands for this setting: dose: 100.0 mg/kg/injection, schedule: Q04DX003 (ip), vehicle: saline.
The mark [5] stands for this setting: dose: 200.0 mg/kg/injection, schedule: Q04DX003 (ip), vehicle: saline.
The mark [6] stands for this setting: dose: 400.0 mg/kg/injection, schedule: Q04DX003 (ip), vehicle: saline.
[7] abbreviates: dose: 200.0 mg/kg/injection, schedule: Q01DX005 (ip), vehicle: saline.
The mark [8] stands for this setting: dose: 100.0 mg/kg/injection, schedule: Q04DX002 (ip), vehicle: Klucel (hydroxypropylcellulose) (HPC).

The list shows only some results of the screen, not a fair sample: it is rich in T/C values a quarter to a half above the control, in often repeated tests (any T/C) and in doses without a T/C. Further doses and runs are listed elsewhere. T/C is the treated group as % of the vehicle group. Some doses have a count of surviving animals in place of a T/C: the source files T/C as zero there, which appears to mark a toxic dose or a test without result, not a measured value. Some survivor counts are full or nearly so, which does not show that the dose was tolerated: the source hardly ever lists a survival T/C far under the control, and the zero likely stands for such cases as well. Survivors were counted at the toxicity check, usually on the fifth day, unless a day is given; later deaths do not show. Schedules are NCI's codes, read here as Q, the interval in days (D) or hours (H), X, the number of doses. For survival time, this PubChem deposit counts one and a half times the control or more as active, and values a quarter to a half above the control carry no call in these data; other NCI protocols may use other cut-offs. Some T/C values are followed by the survivors on the day toxicity was checked, most often the fifth; without a count, all were alive then. Some entries were tested several times; their values stand side by side, smallest first.

With `CCN(CC)C(=S)[S][Pb]([c]1ccccc1)([c]1ccccc1)[c]1ccccc1`, for the setting “dose: 400.0 mg/kg/injection, schedule: Q01DX001 (ip), vehicle: steroid suspending solution”, the survivor count is on record as 4 of 6.
As for `FCCSc1ncnc2nc[nH]c12`, the T/C is 136 % of control [5 of 6 alive] (dose: 44.0 mg/kg/injection, schedule: Q04DX003 (ip), vehicle: saline with Tween-80); 125 [5 of 6 alive] and 137 % of control (dose: 66.0 mg/kg/injection, schedule: Q04DX003 (ip), vehicle: saline with Tween-80); 132 % of control under setting [1]; 128 % of control (dose: 150.0 mg/kg/injection, schedule: Q04DX003 (ip), vehicle: saline with Tween-80). In addition, the survivor count is on record as 0 of 6 under setting [2] and 0 of 6 under setting [3].
Take `O=C1O/C(=C/Br)C=C1Br`: the survivor count is, setting by setting: (dose: 50.0 mg/kg/injection, schedule: Q04DX003 (ip), vehicle: saline) 1 of 3; under setting [4], 0 of 3; under setting [5], 0 of 3; under setting [6], 0 of 3.
On to `CCOCc1cc([N+](=O)[O-])cc([N+](=O)[O-])c1O`, for which the T/C (dose: 12.5 mg/kg/injection, schedule: Q01DX009 (ip), vehicle: saline with Tween-80) was 125 % of control. The survivor count by setting is: under setting [1], 4 of 6; under setting [2], 0 of 6; under setting [3], 0 of 6.
For `C#CC1(NC(c2cc(Cl)cc(Cl)c2O)P(=O)(c2ccccc2)c2ccccc2)CCCCC1` (stereo not given), the survivor count (dose: 400.0 mg/kg/injection, schedule: Q01DX009 (ip), vehicle: Klucel (hydroxypropylcellulose) (HPC)) is listed as 6 of 6.
Take `CCN(CC)CCCOC(=O)/C=C/c1c(C)[nH]c(=O)[nH]c1=O`: the survivor count is, setting by setting: under setting [4], 5 of 6; under setting [5], 1 of 6; under setting [6], 0 of 6.
Consider `O=C(O)CSC(C(=O)O)c1ccccc1` (stereo not given), for which the survivor count under setting [3] is reported as 2 of 6.
For the compound `O=NN(CCCl)C(=O)Nc1cccc(O)c1`, the T/C is, setting by setting: (dose: 2.5 mg/kg/injection, schedule: Q01DX009 (ip), vehicle: carboxymethylcellulose (CMC)) 126 % of control; (dose: 5.0 mg/kg/injection, schedule: Q01DX009 (ip), vehicle: carboxymethylcellulose (CMC)) 147 % of control; (dose: 10.0 mg/kg/injection, schedule: Q01DX009 (ip), vehicle: carboxymethylcellulose (CMC)) 136 % of control; (dose: 15.0 mg/kg/injection, schedule: Q01DX001 (ip), vehicle: carboxymethylcellulose (CMC)) 138 % of control; (dose: 17.0 mg/kg/injection, schedule: Q01DX001 (ip), vehicle: carboxymethylcellulose (CMC)) 130 % of control; (dose: 26.0 mg/kg/injection, schedule: Q01DX001 (ip), vehicle: carboxymethylcellulose (CMC)) 127 % of control. Moreover, the T/C (dose: 40.0 mg/kg/injection, schedule: Q01DX001 (ip), vehicle: carboxymethylcellulose (CMC)) is 138 % of control. Also, the survivor count by setting is: (dose: 60.0 mg/kg/injection, schedule: Q01DX009 (ip), vehicle: carboxymethylcellulose (CMC)) 6 of 6; (dose: 150.0 mg/kg/injection, schedule: Q01DX001 (ip), vehicle: carboxymethylcellulose (CMC)) 6 of 6; (dose: 300.0 mg/kg/injection, schedule: Q01DX001 (ip), vehicle: carboxymethylcellulose (CMC)) 4 of 6.
For `O=[As](O)(O)Cc1cccc(F)c1`, the survivor count was 2 of 6 (dose: 100.0 mg/kg/injection, schedule: Q04DX003 (ip), vehicle: Klucel (hydroxypropylcellulose) (HPC)); 5 of 6 (dose: 200.0 mg/kg/injection, schedule: Q04DX003 (ip), vehicle: Klucel (hydroxypropylcellulose) (HPC)); 2 of 6 (dose: 400.0 mg/kg/injection, schedule: Q04DX003 (ip), vehicle: Klucel (hydroxypropylcellulose) (HPC)).
With `O=[N+]([O-])c1ccc(N=Nc2ccc(O)cc2)c([N+](=O)[O-])c1`, the survivor count (dose: 400.0 mg/kg/injection, schedule: Q01DX001 (ip), vehicle: carboxymethylcellulose (CMC)) is 0 of 4.
`Cc1ccc([N+](=O)[O-])cc1NC(=O)Nc1onc(C)c1C`: the survivor count (dose: 100.0 mg/kg/injection, schedule: Q01DX009 (ip), vehicle: Klucel (hydroxypropylcellulose) (HPC)) is recorded as 3 of 3.
Consider `Cn1cnc(/C(N)=N\O)c1N`, for which the survivor count under setting [7] is listed as 1 of 4 and the survivor count (dose: 400.0 mg/kg/injection, schedule: Q01DX005 (ip), vehicle: saline) is on record as 1 of 4.
Consider `COc1ccc(N(C)C(C)=S)cc1`, for which the survivor count (dose: 400.0 mg/kg/injection, schedule: Q04DX003 (ip), vehicle: gum acacia) is on record as 5 of 6.
In the case of `CC12C(=O)OC(=O)C1(C)C1CCC2O1` (stereo not given), the survivor count is, setting by setting: (dose: 6.25 mg/kg/injection, schedule: Q04DX002 (ip), vehicle: saline with Tween-80) 2 of 3; (dose: 12.5 mg/kg/injection, schedule: Q04DX002 (ip), vehicle: saline with Tween-80) 0 of 3; (dose: 25.0 mg/kg/injection, schedule: Q04DX002 (ip), vehicle: saline with Tween-80) 0 of 3; (dose: 100.0 mg/kg/injection, schedule: Q04DX002 (ip), vehicle: saline with Tween-80) 0 of 3; (dose: 200.0 mg/kg/injection, schedule: Q04DX002 (ip), vehicle: saline with Tween-80) 0 of 3; (dose: 400.0 mg/kg/injection, schedule: Q04DX002 (ip), vehicle: saline with Tween-80) 0 of 3.
With `CCN1C(=O)CC2CCCC1C2` (stereo not given), the survivor count runs as follows: (dose: 200.0 mg/kg/injection, schedule: Q01DX001 (ip), vehicle: saline) 2 of 4; (dose: 400.0 mg/kg/injection, schedule: Q01DX001 (ip), vehicle: saline) 1 of 4.
Turning to `Nc1nc([Se])c2ncn(C3OC(CO)C(O)C3O)c2n1` (stereo not given), the T/C runs as follows: (dose: 5.0 mg/kg/injection, schedule: Q01DX009 (ip), vehicle: saline) 143 % of control; (dose: 40.0 mg/kg/injection, schedule: Q01DX009 (ip), vehicle: saline) 138 % of control. The survivor count (dose: 100.0 mg/kg/injection, schedule: Q01DX005 (ip), vehicle: saline) is recorded as 2 of 6 and the survivor count under setting [7] is 0 of 6.
As for `COC1CCCCC1SCSC1CCCCC1OC` (stereo not given), under “dose: 200.0 mg/kg/injection, schedule: Q01DX009 (ip), vehicle: saline with Tween-80”, the survivor count was 6 of 6.
Turning to `CC(=O)NCc1ccc([N+](=O)[O-])cc1`, under “dose: 400.0 mg/kg/injection, schedule: Q01DX009 (ip), vehicle: saline with Tween-80”, the survivor count is 2 of 6.
Turning to `CC1=C(C)C(C)(Cl)C1(C)Cl` (stereo not given), the survivor count (dose: 300.0 mg/kg/injection, schedule: Q01DX001 (ip), vehicle: acetone) is recorded as 0 of 6.
Consider `CCN(CC)CCCN=C(N)CCl`, for which the survivor count by setting is: (dose: 50.0 mg/kg/injection, schedule: Q01DX009 (ip), vehicle: Klucel (hydroxypropylcellulose) (HPC)) 0 of 3; under setting [8], 0 of 3; (dose: 200.0 mg/kg/injection, schedule: Q04DX002 (ip), vehicle: Klucel (hydroxypropylcellulose) (HPC)) 0 of 3; (dose: 400.0 mg/kg/injection, schedule: Q04DX002 (ip), vehicle: Klucel (hydroxypropylcellulose) (HPC)) 0 of 3.
In the case of `CCC(C#N)C1=CCCCCC1` (stereo not given), the survivor count (dose: 50.0 mg/kg/injection, schedule: Q04DX003 (ip), vehicle: saline with Tween-80) is 2 of 6.
Consider `COc1ccc2nc3c4ccccc4scc-3c2c1`, for which the survivor count runs as follows: under setting [2], 6 of 6; under setting [3], 5 of 6.
For `Clc1nc2ccccc2s1`, the survivor count (dose: 400.0 mg/kg/injection, schedule: Q01DX009 (ip), vehicle: alcohol) is 6 of 6.
Regarding `COC(C)C1C([N+](C)(C)C)CS1(=O)=O` (stereo not given), the survivor count (dose: 300.0 mg/kg/injection, schedule: Q01DX001 (ip), vehicle: saline) is 3 of 6.
Take `CSC(=S)N/N=C(\C)c1ccccn1`: the survivor count was 3 of 3 under setting [2] and 1 of 3 under setting [3].
As for `Cc1ccc(S/N=C\c2ccccc2O)cc1`, the survivor count under setting [8] was 3 of 3.
